Measurements reported in patent publication US20240216339A1, “METHODS OF TREATING NEUROPSYCHIATRIC DISORDERS” (GILGAMESH PHARMACEUTICALS, INC., priority 2021, published 2024).
For at least one compound, name, drawing or mass did not settle the structure.

System: sleep-wake behaviour in Sprague Dawley rats
Experiment: EEG/EMG sleep-wake study of daridorexant, psilocybin and their combination
Format: in vivo, rat
Conditions: for percentage of time spent in REM across 22 h: FIG. 3C
Experimental: The aim of this study was to investigate the effects of daridorexant, psilocybin, and the combination of the two compounds, on sleep-wake behaviour in Sprague Dawley rats, across the circadian cycle. Daridorexant is a dual orexin receptor antagonist used for treating insomnia. Psilocybin is a 5-HT2A receptor agonist with psychedelic properties and relatively short half-life. The study was conducted at Transpharmation, UK, under Study IDs EEG079a and EEG079c.
8 male Sprague Dawley rats (Charles River, UK) were used in the study. Animals were housed in groups of 2-3 with standard conditions. Average weight at start of dosing was 433-517 g, corresponding to ˜ 14 weeks old.
The animals were anaesthetised with isoflurane (2-5% in oxygen at 1 L/min) throughout the procedure. The scalp, neck, and right flank were cleared of hair using clippers and cleaned using diluted Hibitane (50% (v/v) in water). A non-steroidal anti-inflammatory agent was administered (Carprofen 5 mg/kg, subcutaneously (s.c.)) and the animals placed on a homeothermic blanket (37° C.) with the head fixed in a stereotaxic frame. Incisions were made in the scalp and neck, as well as in the right flank. Blunt dissection of the abdominal muscle was then made to gain access to the peritoneal cavity. A radio transmitter (HD-S02, Data Sciences International) was implanted in the peritoneal cavity and secured to the muscle wall with non-absorbable sutures. The wires of the transmitter were passed using a 16 G needle through the muscle wall and then sub-dermally to the scalp to act as EEG/EMG electrodes. The scalp was cleared of connective tissue and two craniotomies were made with a trepanning drill (fronto-parietal coordinates; Bregma+2 mm anterior, midline+1.0 mm lateral, and Lambda 0 mm, +1.5 mm lateral). The positive EEG electrode was attached to the anterior craniotomy and the negative EEG electrode to the posterior craniotomy. Both electrodes were secured in place using a suitable adhesive agent (cyanoacrylate gel, RS components). A second set of electrodes were sutured into the nuchal muscle to act as EMG electrodes. All incisions were closed using absorbable suture.
All animals were allowed to recover in a warm environment and given 5 mL of saline s.c. Animals were kept singly in the cage until the next day, then pair housed for the duration of post-surgical recovery (minimum 7 days). During the recovery period the rats received 5 days of standard post-operative care with no further experimental procedures until the pre-operative body weight was regained. The animals were maintained on a 12/12 h light-dark cycle (08:00 am lights on) after the surgery.
On study days, at ˜30 min after lights-on, animals were placed in recording boxes similar to their home cages and data acquisition was begun for confirmation of signal quality. After 30 min, each animal was briefly removed from its box to be dosed (see schedule below). Animals were immediately put back into the recording boxes, the experimenter left the room, and recordings continued uninterrupted for ˜23 h. At the end of the recording session, the transmitters were turned off and the animals were returned to their home cages. Animals received treatment conditions in a pseudo randomised cross-over fashion with a minimum period of 7 days between doses.
Daridorexant was administered p.o. at a volume of 5 mL/kg with 0.5% methylcellulose vehicle (Vehicle 1), at doses of 30 mg/kg or 100 mg/kg. Psilocybin was administered s.c. at a volume of 3 mL/kg with saline vehicle (Vehicle 2), at doses of 0.5 mg/kg, 1 mg/kg, or 3 mg/kg.
EEG, EMG, and locomotor activity data were acquired for ˜23 h post dosing using intraperitoneal HD-S02 transmitters (DSI, New Brighton, MN) and Spike2 software (CED, Cambridge UK). EEG/EMG signals were amplified, analogue filtered (0.5-100 Hz), digitized (256 Hz), and then digitally filtered (EEG: 0.5-100 Hz and EMG: 70-100 Hz). […]

[1] = first 2 h after dosing, psilocybin alone 1 mg/kg, FIG. 4
[2] = first 4 h after dosing, 30-min windows, psilocybin 3 mg/kg s.c., FIG. 1A

SMILES: CN(C)CCc1c[nH]c2cccc(OP(=O)(O)O)c12 [psilocybin]
- percentage of time spent in Wake across 22 h (active period (lights off) starting 10 h 30 min after dosing, psilocybin 1 mg/kg alone or with daridorexant 30 or 100 mg/kg, FIG. 3A): reduction in wakefulness
- percentage of time spent in NREM across 22 h (active period (lights off) starting 10 h 30 min after dosing, psilocybin 1 mg/kg alone or with daridorexant 30 or 100 mg/kg, FIG. 3B): increases in both NREM and REM sleep
- percentage of time spent in REM across 22 h (active period (lights off) starting 10 h 30 min after dosing, psilocybin 1 mg/kg alone or with daridorexant 30 or 100 mg/kg): increases in both NREM and REM sleep
- number of transitions between REM and NREM sleep [1]: decreased number of transitions
- number of transitions between wakefulness and NREM sleep [1]: increased number of transitions
- percentage of time spent in REM (first 4 h after dosing, 30-min windows, psilocybin 1 mg/kg s.c., FIG. 1A): reduced REM sleep for 3-4 h after dosing
- percentage of time spent in REM [2]: virtually eliminated REM sleep for 3-4 h after dosing
- percentage of time spent in Wake [2]: promoted wakefulness first 60 min after dosing
- REM sleep onset latency (psilocybin 1, 3 mg/kg, daridorexant 30, 100 mg/kg, combinations D100+P1, D30+P1, FIG. 2A): dose-dependent increase
- NREM sleep onset latency (psilocybin 1, 3 mg/kg, daridorexant 30, 100 mg/kg, combinations D100+P1, D30+P1, FIG. 2B): dose-dependent decrease
- percentage of time spent in REM across 22 h (up to 4 h after dosing, psilocybin 1 mg/kg alone or with daridorexant 30 or 100 mg/kg): reduced for up to 4 h after dosing
- attenuating effect on REM sleep compared among treatments (up to 4 h after dosing, psilocybin alone versus combinations): largest attenuating effect
